Test results from article doi:10.1101/2023.10.24.563886.
Results are given in words; binding and its absence hold for the method and conditions named. In cells and extracts the contact can be indirect. Some binding calls cover weakened binding; strength is not graded here.

Amino acid sequences for entries named in this document (tags omitted).
UniProt O88704: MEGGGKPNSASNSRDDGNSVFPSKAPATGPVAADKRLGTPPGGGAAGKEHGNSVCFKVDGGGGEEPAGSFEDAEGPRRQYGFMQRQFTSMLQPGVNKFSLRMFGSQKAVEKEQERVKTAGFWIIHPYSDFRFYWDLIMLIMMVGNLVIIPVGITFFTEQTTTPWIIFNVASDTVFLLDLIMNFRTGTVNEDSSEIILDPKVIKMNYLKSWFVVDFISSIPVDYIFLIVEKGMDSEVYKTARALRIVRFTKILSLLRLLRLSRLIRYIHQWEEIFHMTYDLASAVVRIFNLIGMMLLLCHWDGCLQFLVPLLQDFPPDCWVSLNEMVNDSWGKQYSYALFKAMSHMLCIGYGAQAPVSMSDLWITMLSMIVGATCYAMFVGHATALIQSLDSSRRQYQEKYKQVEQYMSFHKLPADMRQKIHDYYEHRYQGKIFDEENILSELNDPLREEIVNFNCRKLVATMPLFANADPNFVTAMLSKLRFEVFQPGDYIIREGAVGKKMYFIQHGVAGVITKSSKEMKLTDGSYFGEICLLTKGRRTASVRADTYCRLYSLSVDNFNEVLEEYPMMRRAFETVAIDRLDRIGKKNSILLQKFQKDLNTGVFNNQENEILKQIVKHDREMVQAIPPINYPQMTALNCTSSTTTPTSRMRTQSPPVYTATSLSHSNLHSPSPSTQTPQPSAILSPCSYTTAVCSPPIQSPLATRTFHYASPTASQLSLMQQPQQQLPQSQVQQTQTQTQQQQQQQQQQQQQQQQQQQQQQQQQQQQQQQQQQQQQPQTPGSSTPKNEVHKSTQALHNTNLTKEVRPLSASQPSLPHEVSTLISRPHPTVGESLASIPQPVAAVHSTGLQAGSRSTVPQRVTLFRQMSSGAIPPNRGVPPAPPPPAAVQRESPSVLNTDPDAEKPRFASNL
UniProt E1AZ71: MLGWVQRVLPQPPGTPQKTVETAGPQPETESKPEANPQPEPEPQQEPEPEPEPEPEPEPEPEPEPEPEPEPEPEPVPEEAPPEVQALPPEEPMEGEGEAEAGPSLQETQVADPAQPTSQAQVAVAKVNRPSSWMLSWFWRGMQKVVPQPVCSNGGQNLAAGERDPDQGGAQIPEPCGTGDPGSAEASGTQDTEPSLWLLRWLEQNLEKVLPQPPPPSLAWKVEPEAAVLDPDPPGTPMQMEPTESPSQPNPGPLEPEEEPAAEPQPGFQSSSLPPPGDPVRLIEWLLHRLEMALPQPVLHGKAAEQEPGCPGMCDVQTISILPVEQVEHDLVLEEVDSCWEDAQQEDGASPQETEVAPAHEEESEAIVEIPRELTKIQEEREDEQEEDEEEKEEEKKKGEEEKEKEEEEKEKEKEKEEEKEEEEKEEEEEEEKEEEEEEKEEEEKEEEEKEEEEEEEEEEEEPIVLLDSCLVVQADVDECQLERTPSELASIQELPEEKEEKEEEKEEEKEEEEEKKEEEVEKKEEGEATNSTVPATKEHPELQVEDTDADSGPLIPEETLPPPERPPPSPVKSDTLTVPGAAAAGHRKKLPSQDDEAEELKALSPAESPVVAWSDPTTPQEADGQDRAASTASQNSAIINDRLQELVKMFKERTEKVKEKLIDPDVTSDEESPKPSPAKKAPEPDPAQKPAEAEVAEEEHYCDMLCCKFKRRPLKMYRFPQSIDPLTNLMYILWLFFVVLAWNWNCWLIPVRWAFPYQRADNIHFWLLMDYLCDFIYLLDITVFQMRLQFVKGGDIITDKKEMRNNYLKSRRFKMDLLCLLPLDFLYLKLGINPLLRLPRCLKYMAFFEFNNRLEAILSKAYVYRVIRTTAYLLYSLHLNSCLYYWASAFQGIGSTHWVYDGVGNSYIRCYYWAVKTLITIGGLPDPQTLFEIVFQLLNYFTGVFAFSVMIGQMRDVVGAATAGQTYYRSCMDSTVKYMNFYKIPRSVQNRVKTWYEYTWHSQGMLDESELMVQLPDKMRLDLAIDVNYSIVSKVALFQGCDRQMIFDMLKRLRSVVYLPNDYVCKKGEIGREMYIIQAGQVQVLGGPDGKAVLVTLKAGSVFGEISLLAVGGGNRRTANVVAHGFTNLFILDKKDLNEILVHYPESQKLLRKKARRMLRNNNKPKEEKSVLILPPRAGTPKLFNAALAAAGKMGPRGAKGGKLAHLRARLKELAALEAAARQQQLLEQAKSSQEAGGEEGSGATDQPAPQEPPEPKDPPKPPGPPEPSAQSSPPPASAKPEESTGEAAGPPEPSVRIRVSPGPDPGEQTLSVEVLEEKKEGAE

T1: LPHN2 (mouse (endogenous in utricle)) (UniProt Q8JZZ7)
T1 sequence: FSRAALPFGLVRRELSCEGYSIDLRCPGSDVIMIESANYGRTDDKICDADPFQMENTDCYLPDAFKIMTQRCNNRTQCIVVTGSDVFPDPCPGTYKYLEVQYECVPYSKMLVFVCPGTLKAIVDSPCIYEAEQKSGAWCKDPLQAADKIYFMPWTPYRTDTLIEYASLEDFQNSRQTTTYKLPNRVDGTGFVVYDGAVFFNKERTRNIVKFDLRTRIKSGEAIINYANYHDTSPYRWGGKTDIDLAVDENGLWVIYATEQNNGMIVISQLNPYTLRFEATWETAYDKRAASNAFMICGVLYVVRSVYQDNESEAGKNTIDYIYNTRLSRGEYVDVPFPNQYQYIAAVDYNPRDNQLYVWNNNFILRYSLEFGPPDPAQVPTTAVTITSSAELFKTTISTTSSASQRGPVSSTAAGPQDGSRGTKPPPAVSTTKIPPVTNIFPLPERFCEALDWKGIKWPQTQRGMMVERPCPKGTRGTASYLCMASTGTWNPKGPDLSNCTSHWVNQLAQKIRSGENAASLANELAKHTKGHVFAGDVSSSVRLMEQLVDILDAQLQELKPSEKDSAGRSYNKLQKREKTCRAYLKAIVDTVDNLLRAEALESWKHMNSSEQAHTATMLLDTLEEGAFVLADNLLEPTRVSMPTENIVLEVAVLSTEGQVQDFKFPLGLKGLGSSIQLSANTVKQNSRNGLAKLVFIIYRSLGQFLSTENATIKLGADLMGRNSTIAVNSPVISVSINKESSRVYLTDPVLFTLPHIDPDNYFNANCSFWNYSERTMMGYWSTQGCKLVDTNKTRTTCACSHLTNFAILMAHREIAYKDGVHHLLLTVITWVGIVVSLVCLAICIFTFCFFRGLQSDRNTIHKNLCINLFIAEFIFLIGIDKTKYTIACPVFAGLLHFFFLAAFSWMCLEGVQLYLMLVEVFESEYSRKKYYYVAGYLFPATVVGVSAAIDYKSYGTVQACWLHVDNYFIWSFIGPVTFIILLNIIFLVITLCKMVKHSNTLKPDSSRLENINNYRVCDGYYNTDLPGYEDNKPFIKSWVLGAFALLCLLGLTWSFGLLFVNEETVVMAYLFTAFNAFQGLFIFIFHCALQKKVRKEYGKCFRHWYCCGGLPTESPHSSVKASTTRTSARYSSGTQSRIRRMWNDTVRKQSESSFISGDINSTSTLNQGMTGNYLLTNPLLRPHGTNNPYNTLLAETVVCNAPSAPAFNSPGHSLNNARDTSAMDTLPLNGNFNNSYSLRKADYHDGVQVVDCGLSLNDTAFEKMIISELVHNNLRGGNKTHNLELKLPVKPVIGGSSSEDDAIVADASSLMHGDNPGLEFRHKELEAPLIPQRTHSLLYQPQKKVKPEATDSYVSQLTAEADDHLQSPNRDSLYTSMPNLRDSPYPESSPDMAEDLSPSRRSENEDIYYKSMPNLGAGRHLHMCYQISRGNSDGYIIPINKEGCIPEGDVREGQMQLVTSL

B1: CNGA1 (protein, UniProt P29974 1-684)
chain: MKTNIINTWHSFVNIPNVIVPAIEKEIRRMENGACSSFSDDDNGSLSEESENEDSFFRSNSYKRRGPSQREQHLPGTMALFNVNNSSNKDQEPKEKKKKKKEKKSKADDKNENKKDPEKKKKKEKEKEKKKKEEKTKEKKEEEKKEVVVIDPSGNTYYNWLFCITLPVMYNWTMIIARACFDELQSDYLEYWLIFDYVSDVVYLADMFVRTRTGYLEQGLLVKDRMKLIEKYKANLQFKLDVLSVIPTDLLYIKFGWNYPEIRLNRLLRISRMFEFFQRTETRTNYPNIFRISNLVMYIVIIIHWNACVYYSISKAIGFGNDTWVYPDVNDPEFGRLARKYVYSLYWSTLTLTTIGETPPPVLDSEYIFVVVDFLIGVLIFATIVGNIGSMISNMNAARAEFQSRVDAIKQYMNFRNVSKDMEKRVIKWFDYLWTNKKTVDEREVLRYLPDKLRAEIAINVHLDTLKKVRIFADCEAGLLVELVLKLQPQVYSPGDYICKKGDIGREMYIIKEGKLAVVADDGITQFVVLSDGSYFGEISILNIKGSKAGNRRTANIKSIGYSDLFCLSKDDLMEALTEYPDAKTMLEEKGRQILMKDGLLDINIANMGSDPKDLEEKVTRMEGSVDLLQTRFARILAEYESMQQKLKQRLTKVEKFLKPLIETEFSALEEPGGESELTESLQD
B2: CNGA3 (protein, UniProt Q9JJZ8 1-631)
chain: MAKVNTQCSQPSPTQLSIKNADRDLDHVENGLGRVSRLIISIRAWASRHLHDEDQTPDSFLDRFHGSELKEVSTRESNAQPNPGEQKPPDGGEGRKEEPIVVDPSSNIYYRWLTAIALPVFYNWCLLVCRACFDELQSEHLTLWLVLDYSADVLYVLDMLVRARTGFLEQGLMVRDTKRLWKHYTKTLHFKLDILSLIPTDLAYLKLGVNYPELRFNRLLKFSRLFEFFDRTETRTNYPNVFRIGNLVLYTLIIIHWNACIYFAISKFIGFGTDSWVYPNTSKPEYARLSRKYIYSLYWSTLTLTTIGETPPPVKDEEYLFVVIDFLVGILIFATIVGNVGSMISNMNAPRVEFQAKIDSVKQYMQFRKVTKDLETRVIRWFDYLWANRKTVDEKEVLKNLPDKLKAEIAINVHLDTLKKVRIFQDCEAGLLVELVLKLRPTVFSPGDYICKKGDIGREMYIIKEGKLAVVADDGVTQFVVLSDGSYFGEISILNIKGSKSGNRRTANIRSIGYSDLFCLSKDDLMEALTEYPDAKRALEEKGRQILMKDNLIDEDLVAARVDTRDVEEKVEYLESSLDILQTRFARLLAEYSASQMKLKQRLTRLESQMNRRCCGFSPDRENSEDASKTD
B3: HCN4 (protein, UniProt O70507 1-1201)
chain: MDKLPPSMRKRLYSLPQQVGAKAWIMDEEEDGEEEGAGGRQDPSRRSIRLRPLPSPSPSVAAGCSESRGAALGATESEGPGRSAGKSSTNGDCRRFRGSLASLGSRGGGSGGAGGGSSLGHLHDSAEERRLIAAEGDASPGEDRTPPGLATEPERPATAAQPAASPPPQQPPQPASASCEQPSADTAIKVEGGAAASDQILPEAEVRLGQSGFMQRQFGAMLQPGVNKFSLRMFGSQKAVEREQERVKSAGFWIIHPYSDFRFYWDLTMLLLMVGNLIIIPVGITFFKDENTTPWIVFNVVSDTFFLIDLVLNFRTGIVVEDNTEIILDPQRIKMKYLKSWFVVDFISSIPVDYIFLIVETRIDSEVYKTARALRIVRFTKILSLLRLLRLSRLIRYIHQWEEIFHMTYDLASAVVRIVNLIGMMLLLCHWDGCLQFLVPMLQDFPHDCWVSINGMVNNSWGKQYSYALFKAMSHMLCIGYGRQAPVGMSDVWLTMLSMIVGATCYAMFIGHATALIQSLDSSRRQYQEKYKQVEQYMSFHKLPPDTRQRIHDYYEHRYQGKMFDEESILGELSEPLREEIINFNCRKLVASMPLFANADPNFVTSMLTKLRFEVFQPGDYIIREGTIGKKMYFIQHGVVSVLTKGNKETKLADGSYFGEICLLTRGRRTASVRADTYCRLYSLSVDNFNEVLEEYPMMRRAFETVALDRLDRIGKKNSILLHKVQHDLNSGVFNYQENEIIQQIVRHDREMAHCAHRVQAAASATPTPTPVIWTPLIQAPLQAAAATTSVAIALTHHPRLPAAIFRPPPGPGLGNLGAGQTPRHPRRLQSLIPSALGSASPASSPSQVDTPSSSSFHIQQLAGFSAPPGLSPLLPSSSSSPPPGACGSPPAPTPSTSTAAAASTTGFGHFHKALGGSLSSSDSPLLTPLQPGARSPQAAQPPPPLPGARGGLGLLEHFLPPPPSSRSPSSSPGQLGQPPGELSLGLAAGPSSTPETPPRPERPSFMAGASGGASPVAFTPRGGLSPPGHSPGPPRTFPSAPPRASGSHGSLLLPPASSPPPPQVPQRRGTPPLTPGRLTQDLKLISASQPALPQDGAQTLRRASPHSSGESVAAFSLYPRAGGGSGSSGGLGPPGRPYGAIPGQHVTLPRKTSSGSLPPPLSLFGARAASSGGPPLTTAAPQREPGARSEPVRSKLPSNL

Target: T1, LPHN2 (mouse (endogenous in utricle))
Experiment: co-IP

binding	Molecule
no binding	HCN1 (from UniProt O88704 1-910)
no binding	CNGB1 (from UniProt E1AZ71 1-1325)
no binding	B1
binds	B2
no binding	B3
